Measured values: US12576070B2, “Medicine for improving state of pregnancy, and use thereof” (priority 2014, dated 2026)

System: repeated implantation failure (RIF) patients with elevated Th1/Th2 cell ratios
Assay: Tacrolimus treatment of repeated implantation failure (RIF) patients during IVF/ET, prospective cohort study (Example 1)
Format: in vivo, human
Settings: 15 newborns, mean ± standard deviation
Protocol: This was a prospective cohort study of treatment for RIF patients (n=42) with elevated peripheral blood Th1 (CD4^+/IFN-γ^+)/Th2 (CD4^+/IL-4^+) cell ratios at the Sugiyama clinic between November 2011 and October 2013. Twenty-five patients were treated with tacrolimus (treatment group) and 17 received no treatment (control group).
Treatment group continuously received tacrolimus from two days before embryo transfer until the day of the pregnancy test, for a total of 16 days. The daily dose of tacrolimus (1-3 mg) was determined based on the degree of the Th1/Th2 cell ratio. […]
Study patients were assessed by transvaginal ultrasound, hysterosalpingography, and hysteroscopy before the index ART cycle. […]
Blood was drawn between cycle day (CD) 5 and 10 prior to the index ART cycle for the evaluation of a baseline value of Th1/Th2 cell ratios. […] A Th1/Th2 cell ratio equal to 10.3 or above was classified as an elevated Th1/Th2 cell ratio, which was determined by the mean plus one standard deviation of Th1/Th2 cell ratio levels.
For the evaluation of a baseline value of Th1/Th2 cell ratios, total 10 ml of venous blood was obtained. Th1 and Th2 cells were determined by detecting the intracellular interferon (IFN)-γ and IL-4 production. […]

## C=CCC1/C=C(\C)CC(C)CC(OC)C2OC(O)(C(=O)C(=O)N3CCCCC3C(=O)OC(/C(C)=C/C3CCC(O)C(OC)C3)C(C)C(O)CC1=O)C(C)CC2OC (centres unmarked) [tacrolimus, 17-Allyl-1,14-dihydroxy-12-[2-(4-hydroxy-3-methoxycyclohexyl)-1-methylvinyl]-23,2 5-dimethoxy-13,19,21,27-tetramethyl-11,28-dioxa-4-azatricyclo[22.3.1.04,9]octacos-18-ene-2,3,10,16-tetraone]
Height at birth
  Height (cm): 50.9 ± 0.9 cm
Treatment group
  Umbilical cord length (cm): 56.2 ± 12.2 cm
